In patent US20250353835A1, “N-TETRAZOLYL ARYL UREA-BASED DERIVATIVES, PREPARATION METHOD THEREFOR, AND USE THEREOF” (Hangzhou Yirui Pharmaceutical Technology Co., Ltd, priority 2022, published 2025):

Test system: rat model of diabetic retinopathy
Test: Rat model of diabetic retinopathy (STZ)
Format: in vivo, Wistar rats
Conditions: 14 days after intravitreal injection, compounds 0.25%, dexamethasone 0.1%
Protocol: 3.1 Laboratory animals: SPF-grade male Wistar rats, weighed 180-220 g.
3.3 Animal modeling and grouping: After one week of adaptive feeding, 134 male Wistar rats (weighed 220-260 g) were administered 65 mg/kg of STZ by one-time intraperitoneal injection to prepare a rat model of type I diabetic. The rats were fasting but water was allowable overnight for 15 h. The formulated STZ solution was intraperitoneally injected according to body weight. After 1 h, the diet was resumed and blood glucose was measured at 72 h. The successfully modeled diabetic rats (120 rats) were selected for continued feeding, and randomly divided into the following 6 groups according to blood glucose (20 rats per group), plus a group of normal rats with no STZ injected as a negative control group.
3.4 Administration: The rats continued to be fed until blood glucose was measured once before administration. After blood glucose reached the standard, drugs were intravitreally injected, and indexs were subsequently tested after 14 days. Blood glucose was measured once before sampling.
3.5 Evans blue staining method (7 groups, 6 rats per group): Evans blue was intravenously injected. 2 hours later, normal saline was perfused into the left ventricle. The retina was taken to compare between the stained area and the unstained area to detect retinal vascular permeability.
3.6 Retinal leukocyte stasis detection method (7 groups, 6 rats per group): PBS was perfused into the left ventricle for 1 min to remove red blood cells and other substances. Concanavalin A (FITC (Sigma, C7642) was perfused (20 μg/ml in PBS, 5 mg/kg) to mark adherent leukocytes. 4% PFA was perfused for 4 min for fixation. 1% Albumin (Sigma, A6414) (in PBS) was perfused for 1 min, and then PBS was perfused for 2 min. The retina was taken for retinal wholemount. Thereafter, the stasis of leukocytes on the vascular endothelium was observed under a fluorescence microscope. […]

CCOc1ccc(-c2c(F)cc(NC(=O)N3CCC(C(C)(C)C)CC3)cc2-c2nn[nH]n2)cn1 [Compound 8, 4-(tert-butyl)-N-(4-(6-ethoxypyrid-3-yl)-3-fluoro-5-(2H-tetrazol-5-yl)phenyl)piperidine-1-carboxamide]
Blood glucose concentration of the rats in Batch 1 (mmol/L), before sampling: 19.03 ± 1.51 mmol/L | Blood glucose concentration of the rats in Batch 2 (mmol/L), before sampling: 18.56 ± 1.40 mmol/L

COc1ccc(-c2c(F)cc(NC(=O)N3CCC(C(C)(C)C)CC3)cc2-c2nn[nH]n2)cc1OC [Compound 11, 4-(tert-butyl)-N-(2-fluoro-3′,4′-dimethoxy-6-(2H-tetrazol-5-yl)-[1,1′-biphenyl]-4-yl)piperidine-1-carboxamide]
Blood glucose concentration of the rats in Batch 1 (mmol/L), before sampling: 19.02 ± 1.50 mmol/L | Blood glucose concentration of the rats in Batch 2 (mmol/L), before sampling: 18.57 ± 1.41 mmol/L

COc1ccc(-c2ccc(NC(=O)N(C)[C@H]3CC[C@H](C(C)(C)C)CC3)cc2-c2nn[nH]n2)cc1OC [Compound 65, 1-((trans)-4-(tert-butyl)cyclohexyl)-3-(3′,4′-dimethoxy-2-(2H-tetrazol-5-yl)-[1,1′-biphenyl]-4-yl)-1-methylurea]
Blood glucose concentration of the rats in Batch 1 (mmol/L), before sampling: 19.15 ± 1.25 mmol/L | Blood glucose concentration of the rats in Batch 2 (mmol/L), before sampling: 18.27 ± 1.98 mmol/L

CCOc1ccc(-c2ccc(NC(=O)N[C@H]3CC[C@H](C)CC3)cc2-c2nn[nH]n2)cn1 [Compound 71, 1-(4-(6-ethoxypyrid-3-yl)-3-(2H-tetrazol-5-yl)phenyl)-3-((trans)-4-methylcyclohexyl)urea]
Blood glucose concentration of the rats in Batch 1 (mmol/L), before sampling: 19.52 ± 1.07 mmol/L | Blood glucose concentration of the rats in Batch 2 (mmol/L), before sampling: 18.53 ± 1.93 mmol/L
